Data source: PubChem BioAssay AID1259254 (NCATS, 2017)

Test: 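Finding genes that stop cells copying their DNA twice in one cycle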 (primary screen)
Cell system: human HCT116 colorectal cancer cells
Reagents: single siRNA against human genes
Duration: 3 days
Measured: 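Imaged Hoechst DNA stain sorts each cell into a cycle phase by DNA amount; per plate, G2 fraction set to 0% for non-targeting and 100% for GMNN siRNA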
Scale: G2 robust z-score and G2 cells, % of GMNN control: higher = more G2 cells, more excess DNA replication; raw share of cells in G2: higher = larger share of cells with G2 DNA content
Active means: 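Active siRNAs have a G2 robust z of 5 or more median absolute deviations over the median, which in these data means about 38% or higher of GMNN control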
Shown is a random part of about 59,000 reagents. In the full data, about 1,550 (2.6%) are marked active. 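G2 share is only a proxy for re-replication; each gene was hit by three separate siRNAs, and active genes were retested.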 Raw values are not corrected between plates. Unmarked entries are inactive. Not stated in the record: the amount of reagent.

target gene	PubChem SID	G2 robust z-score	G2 cells, % of GMNN control	raw share of cells in G2 (%)
EIF3M	SID160728532	4.22	32.7	20.1
EIF3M	SID160728533	-0.365	0.403	4.11
EIF3M	SID160728534	0.109	3.73	4.76
OR4L1	SID160732389	-0.23	1.35	2.21
OR4L1	SID160756010	3.28	26.1	14.5
OR4L1	SID160756011	0.326	5.26	4.9
N4BP2L2	SID160728430	0.381	5.65	7.88
N4BP2L2	SID160728431	2.68	21.8	13.1
N4BP2L2	SID160728432	-0.607	-1.3	2.93
ERBB2	SID160773956	0.588	7.1	7.95
ERBB2	SID160774052	-0.178	1.72	5.99
ERBB2	SID160774137	-0.0219	2.81	5.02
RNF125	SID160742553	-0.34	0.578	3
RNF125	SID160742555	3.82	29.9	19.4
RNF125	SID160742556	0.823	8.76	6.38
UBA1	SID160772914	4.45	34.3	17
UBA1	SID160773012	0.144	3.98	5.79
UBA1	SID160773111	1.12	10.9	10.2
SEL1L3	SID160735779	1.53	13.8	10.4
SEL1L3	SID160735780	0.969	9.79	8.18
SEL1L3	SID160735781	-0.658	-1.66	2.55
PIH1D1	SID160742738	-0.143	1.96	5.28
PIH1D1	SID160742739	-0.903	-3.39	2.73
PIH1D1	SID160742740	-0.878	-3.21	2.11
AVPR1B	SID160722531	0.374	5.6	7.84
AVPR1B	SID160722543	5.33 (active)	40.5	18.7
AVPR1B	SID160722553	0.267	4.84	4.75
SRRM3	SID160761817	-0.185	1.67	4.18
SRRM3	SID160761818	-0.759	-2.37	2.32
SRRM3	SID160761819	2.4	19.9	9.53
OR2T29	SID160764724	1.9	16.4	9.61
OR2T29	SID160764725	-0.71	-2.03	2.37
OR2T29	SID160764727	1.08	10.6	8.46
LOC729254	SID160734503	-0.72	-2.1	2.29
LOC729254	SID160772584	-0.667	-1.73	3.27
LOC729254	SID160772585	-0.526	-0.73	3.08
MDM4	SID160777094	0.728	8.09	8.49
MDM4	SID160777095	4.75	36.4	15.2
MDM4	SID160777096	-0.18	1.7	6.14
OR5K3	SID160767489	1.96	16.8	9.9
OR5K3	SID160767490	0.679	7.75	6.59
OR5K3	SID160767491	0.343	5.38	7.02
SCARF2	SID160753911	-0.0488	2.62	5.47
SCARF2	SID160753912	-0.609	-1.31	5.06
SCARF2	SID160753913	-0.514	-0.651	4.69
SH3TC1	SID160741673	-0.738	-2.23	2.81
SH3TC1	SID160741674	-0.641	-1.54	3.62
SH3TC1	SID160741675	1.74	15.2	8.23

Next part; the last 4 above are carried over.
target gene	PubChem SID	G2 robust z-score	G2 cells, % of GMNN control	raw share of cells in G2 (%)
SCARF2	SID160753913	-0.514	-0.651	4.69
SH3TC1	SID160741673	-0.738	-2.23	2.81
SH3TC1	SID160741674	-0.641	-1.54	3.62
SH3TC1	SID160741675	1.74	15.2	8.23
VWA8	SID160735396	-0.432	-0.0727	4.96
VWA8	SID160735397	-0.183	1.68	4.83
VWA8	SID160735398	0.177	4.21	4.75
SMARCA1	SID160717024	-0.169	1.77	6.28
SMARCA1	SID160717025	0.604	7.22	7.02
SMARCA1	SID160717026	2.67	21.7	11.2
RHOBTB2	SID160735757	0.561	6.91	9.14
RHOBTB2	SID160735758	-0.403	0.134	4.2
RHOBTB2	SID160735759	0.486	6.39	6.05
SLC19A3	SID160750465	-0.201	1.55	6.08
SLC19A3	SID160750466	0.0164	3.08	5.93
SLC19A3	SID160750467	4.99	38.1	18
ABCF3	SID160743535	0.611	7.26	9.61
ABCF3	SID160743537	-0.457	-0.25	4.35
ABCF3	SID160743538	-0.584	-1.14	3.86
STAG1	SID160728049	-0.543	-0.855	4.94
STAG1	SID160728050	-0.405	0.116	3.99
STAG1	SID160728051	-0.769	-2.44	2.52
DLL4	SID160741937	1.33	12.3	8.79
DLL4	SID160741938	-0.924	-3.53	2.45
DLL4	SID160741939	2.91	23.4	16.6
PACSIN2	SID160730292	3.45	27.2	14.1
PACSIN2	SID160730293	0.0245	3.14	6.33
PACSIN2	SID160730294	0.349	5.42	5.42
WBP2	SID160732769	0.358	5.48	5.22
WBP2	SID160736564	1.67	14.7	9.96
WBP2	SID160736565	0.372	5.59	6.36
C15orf32	SID160758295	-0.501	-0.556	3.64
C15orf32	SID160758296	-0.683	-1.84	2.35
C15orf32	SID160758297	-0.0547	2.58	3.97
VAV3	SID160747623	-1.41	-6.98	3.72
VAV3	SID160747730	0.533	6.72	8.62
VAV3	SID160747834	0.693	7.85	6.38
GPR176	SID160730273	-1.2	-5.48	3.88
GPR176	SID160730274	-0.954	-3.75	2.12
GPR176	SID160730527	-0.858	-3.07	3.44
ADIPOR2	SID160748974	1.07	10.5	9.98
ADIPOR2	SID160748975	1.4	12.8	8.88
ADIPOR2	SID160748976	0.747	8.22	7.26
